# Values quoted from earlier work in patent US20100272800A1 (SANOVEL ILAC SANAYI VE TICARET ANONIM SIRKETI, priority 2009, published 2010).
# Assays:
# [1] = biological target: adrenergic (alpha)1 receptors; conditions: read-out: Ki adrenergic (alpha)1 receptors
# [2] = biological target: serotonin 5HT3; conditions: read-out: Ki serotonin 5HT3
structure (smiles),measurement,setting,value
"Cc1cc2c(s1)Nc1ccccc1N=C2N1CCN(C)CC1 [Olanzapine, 2-methyl-4-(4-methyl-1-piperazinyl)-10H-thieno[2,3-b][1,5] benzodiazepine]",Ki,[1],19 nM
same,Ki,[2],57 nM
